This note sets out measurements from article PMC6085464.

Amino acid sequences for entries named in this document (tags omitted). A change or cut given only in a name is not applied to a line headed by its entry.
UniProt O95388: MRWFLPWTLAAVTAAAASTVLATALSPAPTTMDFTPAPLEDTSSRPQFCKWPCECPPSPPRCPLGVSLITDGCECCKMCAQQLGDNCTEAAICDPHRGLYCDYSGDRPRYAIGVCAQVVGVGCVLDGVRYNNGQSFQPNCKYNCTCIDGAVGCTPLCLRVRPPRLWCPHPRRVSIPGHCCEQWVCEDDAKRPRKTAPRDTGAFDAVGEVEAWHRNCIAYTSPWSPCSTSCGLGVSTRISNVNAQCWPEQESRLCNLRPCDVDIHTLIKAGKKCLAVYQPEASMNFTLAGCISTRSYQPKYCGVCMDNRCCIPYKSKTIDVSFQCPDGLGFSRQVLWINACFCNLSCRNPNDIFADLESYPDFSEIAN

This test addresses polyhistidine tagged WISP1 (His6-WISP1) (not stated (human or mouse cDNA cloned)) (UniProt O95388). Kind of test: pull-down; His6-WISP1 immobilised on Ni-NTA magnetic agarose beads, incubated with GST-Siah-1; extensive washing, beads boiled in SDS sample buffer, immunoblot with anti-GST and anti-WISP1 antibodies; n = 3; both purified. A general note: Immunoblotting shows a protein as a band on a membrane.

These are yes or no findings as the source states them, for the method shown. Binding calls can cover weak binding; strength is not graded here. Sequences can lack the tags named with a protein.

B1: GST-Siah-1 fusion protein (full-length, wild-type Siah-1) (enzyme, UniProt Q8IUQ4-1 1-282)
chain: MSRQTATALPTGTSKCPPSQRVPALTGTTASNNDLASLFECPVCFDYVLPPILQCQSGHLVCSNCRPKLTCCPTCRGPLGSIRNLAMEKVANSVLFPCKYASSGCEITLPHTEKADHEELCEFRPYSCPCPGASCKWQGSLDAVMPHLMHQHKSITTLQGEDIVFLATDINLPGAVDWVMMQSCFGFHFMLVLEKQEKYDGHQQFFAIVQLIGTRKQAENFAYRLELNGHRRRLTWEATPRSIHEGIATAIMNSDCLVFDTSIAQLFAENGNLGINVTISMC
As for B1, the binding result was “binds”.
